According to the supplement of paper PMC12067093, “Discovery and optimisation of a covalent ligand for TRIM25 and its application to targeted protein ubiquitination” (Chemical Science, 2025):
The list shows a part of the results.

Compound: CC1Cc2ccccc2N1C(=O)C1CCCN(C1)C(=O)CCl (mixture of isomers) [TRIM25 ligand 11 (diastereomer mixture)]
Assay: probe-labelled cysteine peptide fold change vs DMSO (competition) (log2 fold change); higher = less target engagement (more negative = stronger competition)
Conditions: THP-1, incubation time: 4 h
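Further: competitive chemoproteomic profiling in live THP-1 cells with an iodoacetamide desthiobiotin (IA-DTB) probe, comparing probe-labelled peptide intensities in compound-treated cells against DMSO-treated controls.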

Target | probe-labelled cysteine peptide fold change (10 µM) | probe-labelled cysteine peptide fold change (50 µM)
COPB2_P35606_276_VWCVASLR (UniProt P35606) | 0.195 | 0.314
COPB1_P53618_684_NEMNCK (UniProt P53618) | -0.113 | -0.242
COMTD1_Q86VU5_191_ENCSAYYER (UniProt Q86VU5) | 0.0457 | 0.283
COPS3_Q9UNS2_25_QLSAQGQMTQLCELINK (UniProt Q9UNS2) | -0.0621 | -0.175
COPA_P53621_380_SGSKFPVFNMSYNPAENAVLLCTR (UniProt P53621) | -0.452 | -0.219
CNDP2_Q96KP4_161_FCLEGMEESGSEGLDELIFAR (UniProt Q96KP4) | -0.00564 | -0.0637
COMT_P21964_119_IVDAVIQEHQPSVLLELGAYCGYSAVR (UniProt P21964) | -0.0429 | 0.0342
CNBP_P62633_97+98+101_EQCCYNCGKPGHLAR (UniProt P62633) | -0.122 | -0.267
CMPK2_Q5EBM0_422_MENPGCHVVDASPSR (UniProt Q5EBM0) | 0.106 | -0.137
COLGALT1_Q8NBJ5_283_QAEVQMYVCNK (UniProt Q8NBJ5) | 0.453 | 0.412
COMT_P21964_207_YLPDTLLLEECGLLR (UniProt P21964) | -0.0193 | 0.143
CNBP_P62633_119_CYSCGEFGHIQK (UniProt P62633) | -0.0297 | -0.0532
CNBP_P62633_122_CYSCGEFGHIQK (UniProt P62633) | 0.0146 | 0.0788
COPB2_P35606_40_SVDLHPTEPWMLASLYNGSVCVWNHETQTLVK (UniProt P35606) | 0.11 | -0.116
COP1_Q8NHY2_704_DRKEDDTNEFVSAVCWR (UniProt Q8NHY2) | -0.384 | 0.0888
CNOT9_Q92600_252_QCLPDQLK (UniProt Q92600) | 0.0631 | 0.169
COPA_P53621_254_GHYNNVSCAVFHPR (UniProt P53621) | 0.00572 | -0.0672
CNP_P09543_252_RPPGVLHCTTK (UniProt P09543) | -0.0662 | -0.201
CNPY2_Q9Y2B0_171_TDLCDHALHISHDEL (UniProt Q9Y2B0) | -0.1 | -0.0705

Target | probe-labelled cysteine peptide fold change (10 µM) | probe-labelled cysteine peptide fold change (50 µM)
CMAS_Q8NFW8_394_VGLSGAPADACSTAQK (UniProt Q8NFW8) | 0.076 | 0.0854
COMMD4_Q9H0A8_34_LLCSQVLK (UniProt Q9H0A8) | 0.00723 | 0.0589
CMTR1_Q8N1G2_794_DSTFDLPADSIAPFHICYYGR (UniProt Q8N1G2) | 0.0684 | 0.14
COPS7B_Q9H9Q2_181_TLHEWCDGCEAVLLGIEQQVLR (UniProt Q9H9Q2) | -0.0599 | 0.0351
COA7_Q96BR5_111_SIAACHNVGLLAHDGQVNEDGQPDLGK (UniProt Q96BR5) | -0.0928 | -0.242
COPG2_Q9UBF2_296_ELAPAVSVLQLFCSSPK (UniProt Q9UBF2) | 0.035 | 0.0896
CNPY2_Q9Y2B0_28+31_SQDLHCGACR (UniProt Q9Y2B0) | -0.0695 | -0.0399
CNN2_Q99439_164_AGQCVIGLQMGTNK (UniProt Q99439) | -0.108 | -0.0857
COLGALT1_Q8NBJ5_412_GELGCFLSHYNIWK (UniProt Q8NBJ5) | -0.0165 | -0.0875
COL4A3BP_Q9Y5P4_65_SEDETEYGCR (UniProt Q9Y5P4) | -0.0512 | 0.00106
CNOT1_A5YKK6_426_HAEGQLSFIQHSLINPEIFCFADYPCHTVATDILK (UniProt A5YKK6) | 0.117 | 0.0307
COG3_Q96JB2_349_ELLLGPSIACTVAELTSQNNR (UniProt Q96JB2) | -0.138 | -0.147
COG1_Q8WTW3_87_ATDQYCAR (UniProt Q8WTW3) | 0.00729 | -0.0459
CNOT1_A5YKK6_50_CLFSHVDFSGDGK (UniProt A5YKK6) | 0.00225 | 0.134
COA7_Q96BR5_37_DPDGCYR (UniProt Q96BR5) | -0.045 | 0.0471
COMT_P21964_238+241_GSSCFECTHYQSFLEYR (UniProt P21964) | -0.0151 | -0.264
CNPY2_Q9Y2B0_171_RTDLCDHALHISHDEL (UniProt Q9Y2B0) | 0.118 | -0.0283
COPB2_P35606_234_TCVQTLEGHAQNVSCASFHPELPIIITGSEDGTVR (UniProt P35606) | 0.132 | -0.0309
COG5_Q9UP83_716_LAADFAQMELAVGPFCR (UniProt Q9UP83) | 0.0393 | 0.278

Single entries from the entries so far:
COPG2_Q9UBF2_296_ELAPAVSVLQLFCSSPK (UniProt Q9UBF2) | probe-labelled cysteine peptide fold change (10 µM): 0.035
CMAS_Q8NFW8_394_VGLSGAPADACSTAQK (UniProt Q8NFW8) | probe-labelled cysteine peptide fold change (10 µM): 0.076
COA7_Q96BR5_37_DPDGCYR (UniProt Q96BR5) | probe-labelled cysteine peptide fold change (10 µM): -0.045
